The text below walks through data of patent publication US20060270709A1 (priority 2005, published 2006).

The test system of test [1] is OGD-induced neurotoxicity in CA1 region of organotypic hippocampal slice cultures. Briefly: Oxygen-glucose deprivation (OGD) in organotypic hippocampal slice cultures (PI fluorescence in CA1). In kind it is cell-based, Wistar rat. The note with it: OGD second series, OGD alone 44.8±3.3%. As to the method:
(§1) Organotypic hippocampal slice cultures were prepared using the basic method of Pringle et al, Brain Research, 755:36-46 (1997) modified as follows. Wistar rat pups (8-11 days old) were decapitated and the hippocampus rapidly dissected into ice-cold Gey's balanced salt solution supplemented with 4.5 mg/ml glucose. Transverse sections (400 μm) were cut on a McIlwain tissue chopper and placed back into ice-cold Gey's balanced salt solution. Slices were separated and plated onto Millicell CM culture inserts (4 per well) and maintained at 37° C./5% CO2 for 14 days. […] Medium was changed every 3-4 days.
(§2) PI fluorescence was detected using a Leica DMIL inverted microscope fitted with a rhodamine filter set. Any cultures in which PI fluorescence was detected at this stage were excluded from further study. […] Neuronal damage was assessed by PI fluorescence imaging 24 hours after the initiation of the neurotoxic insult. Neurotoxicity protocols are outlined below.
(2) Oxygen-Glucose Deprivation (OGD): Experimental ischaemia was performed by exposing cultures to oxygen-glucose deprivation (OGD) as described previously. Pringle et al, Brain Research, 755:36-46 (1997); Pringle et al, Stroke, 27:2124-2130 (1996); Morrison et al, Br. J. Pharmacol., 137:1255-1268 (2002). OGD was induced by transferring cultures to glucose-free SFM (+PI) which had been saturated with 95% N2/5% CO2. […]
Neuronal damage was assessed using ImageJ software running on a PC. […] Light transmission images were captured prior to the addition of drugs, and PI fluorescence images recorded at the end of the 24-hour recovery period. The area of the CA1 region was determined from the transmission image. The area of PI fluorescence in the CA1 was measured using the threshold function on ImageJ, and neuronal damage expressed as the percentage of the CA1 in which PI fluorescence was detected above background. […]

Test [2] deals with excitotoxicity induced by kainate. The note with it: Akasofu et al, Eur. J. Pharmacol., 530:215-222 (2006); cited from earlier work.
Test [3] concerns kainate-induced neuronal toxicity in cortical neurons. Briefly: Kainate-induced neuronal toxicity in cortical neurons (LDH release). The note with it: 200 μM kainate 24 h; drugs 24 hours before and during exposure (FIG. 4). The test is classed as cell-based, rat (Wistar, fetal). Here is the method: The cortical tissues were dissociated to single cells by gentle trituration. […] The cell suspension was centrifuged at 310×g for 3 min and the resulting pellets were resuspended in the medium described above.
A general note: LDH in the medium is a marker of cell lysis.

Test [4] relates to hypoxia-induced neurodegeneration in CA1 region of organotypic hippocampal slice cultures. Briefly: Hypoxia-induced neurodegeneration in organotypic hippocampal slice cultures. The test is classed as cell-based, Wistar rat. Here is the method:
as §1, §2
(3) Hypoxia: Hypoxia was performed by exposing cultures to oxygen-deprivation as described previously. Pringle et al, Brain Research, 755:36-46 (1997); Pringle et al, Stroke, 27:2124-2130 (1996). Hypoxia was induced by transferring cultures to SFM (+PI) which had been saturated with 95% N2/5% CO2. Culture plates (without lids) were then sealed into an airtight chamber in which the atmosphere was saturated with 95% N2/5% CO2 by continuously blowing through gas at 10 L/min for ten minutes before being sealed and placed in the incubator for 170 mins (total time of hypoxia was therefore 180 mins). At the end of the period of hypoxia, cultures were returned to normoxic SFM (+PI) and placed back in the incubator for 21 hours. The freeradical scavenger MnTBAP (100 μM) was used as a positive neuroprotective control.
(§3) Neuronal damage was assessed using ImageJ software running on a PC. Images were captured using a monochrome CCD camera and saved for otlline analysis. Light transmission images were captured prior to the addition of drugs, and PI fluorescence images recorded at the end of the 24-hour recovery period. The area of the CA1 region was determined from the transmission image. The area of PI fluorescence in the CA1 was measured using the threshold function on ImageJ, and neuronal damage expressed as the percentage of the CA1 in which PI fluorescence was detected above background. Morrison et al, Br. J. Pharmacol., 137:1255-1268 (2002).

Test [5] concerns AMPA-mediated neurodegeneration in CA1 region of organotypic hippocampal slice cultures. Briefly: AMPA toxicity in organotypic hippocampal slice cultures (PI fluorescence in CA1). As to conditions: for area of PI fluorescence, % of CA1: 30 μM AMPA, AMPA alone 62.4±2.4%. In kind it is cell-based, Wistar rat. Here is the method:
as §1, §2
(1) AMPA: Cultures were transferred to fresh SFM (+PI) containing 30 μM S-AMPA for 3 hours under normal culture conditions. At the end of this period, cultures were returned to fresh SFM for 21 hours prior to determination of neuronal death by PI imaging. GYK152466 (30 μM) was used as a positive, neuroprotective control.
as §3

The subject of test [6] is duroquinone-induced injury in CA1 region of organotypic hippocampal slice cultures. Briefly: Free radical-mediated toxicity (duroquinone) in organotypic hippocampal slice cultures. The note with it: 100 μM duroquinone 3 hours, duroquinone alone 51.0±3.4%. In kind it is cell-based, Wistar rat. As to the method: as §1, §2
(5) Free radical-mediated toxicity (Duroquinone): Duroquinone produces superoxide-mediated neurotoxicity producing a selective neuronal lesion in the CA1 region. Wilde et al, J. Neurochem., 69(2):883-886 (1997). Cultures were transferred to fresh SFM (+PI) containing 100 μM duroquinone for 3 hours under normal culture conditions. At the end of this period, cultures were returned to fresh SFM for 21 hours prior to determination of neuronal death by PI imaging. MnTBAP (100 μM) was used as a positive neuroprotective control.
Neuronal damage was assessed using ImageJ software running on a PC. Images were captured using a monochrome CCD camera and saved for otlline analysis. Light transmission images were captured prior to the addition of drugs, and PI fluorescence images recorded at the end of the 24-hour recovery period. The area of the CA1 region was determined from the transmission image. The area of PI fluorescence in the CA1 was measured using the threshold function on ImageJ, and neuronal damage expressed as the percentage of the CA1 in which PI fluorescence was detected above background. […]

The subject of test [7] is excitotoxicity induced by NMDA. As to conditions: Akasofu et al, Eur. J. Pharmacol., 530:215-222 (2006); cited from earlier work.
For test [8], the system named is NMDA-induced neurotoxicity in CA1 region of organotypic hippocampal slice cultures. Briefly: NMDA-induced neurotoxicity in organotypic hippocampal slice cultures. The test is classed as cell-based, Wistar rat. The note with it: 10 μM NMDA 3 hours, NMDA alone 35.1±2.2%. Here is the method: as §1, §2
At the end of this period, cultures were returned to fresh SFM for 21 hours prior to determination of neuronal death by PI imaging.
as §3

In test [9] the test system is dopamine turnover in mice striatum. Briefly: Dopamine, DOPAC and HVA content / dopamine turnover in mice striatum (HPLC-ECD). The note with it: oral, 1 hour before sampling (FIG. 2). The test is classed as in vivo, C57BL/6 mice.

On to `COc1cc2c(cc1OC)C(=O)C(CC1CCN(Cc3ccccc3)CC1)C2` (stereo not drawn) [donepezil, 1-benzyl-4-((5,6-dimethoxy-1-indanon)-2-yl)methylpiperidine], for which the “damage in CA1 (PI fluorescence)” value in test [1] (0.1 μM) stood at 49.4±2.7%; in test [1] (1 μM), 54.1±4.7%; in test [1] (10 μM), 45.3±3.3%; in test [4] (0.1 μM, 3 hours hypoxia, first set, hypoxia alone 45.1±3.5%), 31.7±4.6%; in test [4] (0.1 μM, hypoxia, second set, hypoxia alone 36.4±3.9%), 30.4±3.9%; in test [4] (0.5 μM, hypoxia, repeated experiment, hypoxia alone 36.9+4.4%) it was 25.3±3.6%. Further, the “damage in CA1 (PI fluorescence)” value in test [4] (1 μM, 3 hours hypoxia, first set, hypoxia alone 45.1±3.5%) is reported as 14.9±3.2%; in [4] (10 μM, 3 hours hypoxia, first set, hypoxia alone 45.1±3.5%) it was 12.9±2.9%; in [6] (0.1 μM), 56.4±4.4%; in test [6] (1 μM), 53.2±4.9%; in [6] (10 μM), 56.6±4.4%; in test [8] (0.1 μM), 23.0±2.4%. Further, the “damage in CA1 (PI fluorescence)” value in test [8] (1 μM) amounted to 25.2±2.3%; in [8] (10 μM donepezil), 14.5±2.2%. For the same molecule, the “neuroprotective effects against excitotoxicity induced by kainate” value in test [2] is given as “not by kainate”. In addition, the “neuronal survival (LDH release)” value in [3] is “modest effect on neuronal survival”. For the same molecule, the entries for the “area of PI fluorescence, % of CA1” value in test [5] (0.1 μM), in test [5] (1 μM) and in test [5] (10 μM) were 69.5±2.4%, 70.7±2.4% and 70.9%±2.8, respectively. For the same molecule, the “PI fluorescence, % of CA1” value was 57.4±2.3% in test [5] (4 hours pre-incubation, AMPA alone 46.5±5.0%) and 55.51±2.6% in [5] (24 hours pre-incubation, AMPA alone 46.5±5.0%). Moreover, in [5] (longer pre-incubation times (up to 48 hours), AMPA alone 46.5±5.0%), the “effect on AMPA-mediated toxicity” value is on record as “No effect”. In addition, the “neuroprotective effects against excitotoxicity induced by NMDA” value in test [7] is recorded as “exhibits neuroprotective effects”. The “elevation of dopamine metabolite” value in test [9] is reported as “did not reach significance”.
